The text below walks through data of publication PMC10541524.

Data set [1] has as its system PhOBF1 (Petunia hybrida). Description: EMSA. To be noted: LightShift EMSA Optimization and Control Kit (Pierce); 6% non-denaturing PAGE; pH and temperature not stated; recombinant protein; protein details: His (pET28a); label: 5' biotin on strand 1. (In EMSA bound probe runs differently from free probe, usually more slowly.)
Data set [2] relates to PhOBF1 (Petunia hybrida). Description: competition EMSA. To be noted: 50- and 100-fold unlabeled over N1; LightShift EMSA Optimization and Control Kit (Pierce); 6% non-denaturing PAGE; pH and temperature not stated; recombinant protein; protein details: His (pET28a).

The exact form of at least one protein or probe is not confirmed.

With “AATATGAATTAATTTACACGTGTATTGATTAAAAA (double strand) [pPhGA20ox3-WT probe]”, in the data set on PhOBF1 (Petunia hybrida) [1], the binding result is on record as “binds”.
Regarding “AATATGAATTAATTTACACGTGTATTGATTAAAAA (double strand) [pPhGA20ox3-WT cold competitor]”, the binding result with PhOBF1 (Petunia hybrida) [2] is “binds”.
